{
  "source": "patent US11512042B2",
  "about": "“Enamine compounds for absorbance of electromagnetic energy” (Commonwealth Scientific and Industrial Research Organisation, priority 2015, dated 2022)",
  "key": {"[1]": {"assay": "UV absorbance spectrum in solution (λmax, λcrit, extinction coefficients)", "type": "physicochemical", "settings": "for ε: in M-1 cm-1 (unit assumed)", "excerpt": "(§1) FIG. 1 is a graphical representation of the absorbance of compounds 142 and 143 measured in a 10 mm cuvette as 0.001% solutions in methanol (142 is the uppermost trace at peak point of approximately 330 nm); The synthesised benzoyl functionalised compounds and their spectroscopic properties can be seen in table 2 wherein; breakthrough denotes the value in nm where transmittance increases beyond 1%; steepness refers to the distance in nm over which transmittance increases from 1 to 80% (a higher value indicates a less steep transition from absorbing to transmitting and is generally unfavourable); and ^a denotes an average of multiple measurements. As a general comment, it can be noted that the benzoyl substituted compounds gave similar absorbance maxima to the corresponding trifluoroacetyl derivative."}, "[2]": {"assay": "% transmission spectrum of 0.1% solution (breakthrough, steepness)", "type": "physicochemical", "excerpt": "FIG. 2 is a is a graphical representation of the % transmission of compounds 142 and 143 measured in a 2 mm cuvette as 0.1% solutions in methanol (142 is the left most trace);\nas §1, with “The” for “FIG. 1 is a graphical representation of the absorbance of compounds 142 and 143 measured in a 10 mm cuvette as 0.001% solutions in methanol (142 is the uppermost trace at peak point of approximately 330 nm); The”"}},
  "note": "At least one compound was matched to its structure with a doubt left.",
  "data": [
    {"molecule": "CCN(/C=C(\\C(=O)C(F)(F)F)c1ccccc1)c1ccccc1", "note": "[Compound 142, 4-(ethyl(phenyl)amino)-1,1,1-trifluoro-3-phenylbut-3-en-2-one]", "values": [
      {"measurement": "λmax", "setting": "[1]", "value": 331, "unit": "nm"},
      {"measurement": "ε", "setting": "[1]; UV, at λmax", "value": 34708, "unit": "M⁻¹ cm⁻¹"},
      {"measurement": "λcrit", "setting": "[1]; critical wavelength", "value": 365, "unit": "nm"},
      {"measurement": "E (1%, 1 cm)", "setting": "[1]; mass extinction coefficient", "value": 1088},
      {"measurement": "ε", "setting": "[1]; molar extinction coefficient", "value": 34708},
      {"measurement": "Steepness", "setting": "[2]; distance in nm over which transmittance increases from 1 to 80%", "value": 29, "unit": "nm"},
      {"measurement": "Breakthrough (1% T at 0.1%)", "setting": "[2]; value in nm where transmittance increases beyond 1%, 0.1% solution", "value": 381, "unit": "nm"}
    ]}
  ]
}
